Test results reported in US20130203659A1 (priority 2006, published 2013).
Not every detail of the peptide structures is certain; ends, links or a residue may be inferred. No end group written: not given here.

The chains behind the UniProt entries cited, without tags or fusion partners. Residues count along the entry.
UniProt P43220, 24-463: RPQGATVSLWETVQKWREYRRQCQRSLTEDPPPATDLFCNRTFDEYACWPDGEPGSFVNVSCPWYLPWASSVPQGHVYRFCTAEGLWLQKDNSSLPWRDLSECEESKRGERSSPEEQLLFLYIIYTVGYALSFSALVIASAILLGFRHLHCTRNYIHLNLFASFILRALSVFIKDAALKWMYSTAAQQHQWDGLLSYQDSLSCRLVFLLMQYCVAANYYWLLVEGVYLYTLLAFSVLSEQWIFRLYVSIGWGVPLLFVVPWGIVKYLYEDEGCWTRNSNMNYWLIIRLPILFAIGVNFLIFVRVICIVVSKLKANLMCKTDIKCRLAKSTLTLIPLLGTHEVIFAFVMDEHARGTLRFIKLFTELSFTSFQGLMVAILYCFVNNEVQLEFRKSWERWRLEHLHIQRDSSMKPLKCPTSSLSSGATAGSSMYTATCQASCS

Columns and labels:
mouse GLP-1 receptor = target: T1, mouse GLP-1 receptor (Mus musculus, UniProt O35659); assay: GLP-1R reporter assay (cAMP-regulated luciferase, CHOK1 cells), mouse receptor; type: cell-based; settings: 6 hours exposure
T1 construct: expressed in transfected cells; host or cells: CHOK1 cells with a cAMP-regulated luciferase reporter construct
T1 sequence (O35659 22-463): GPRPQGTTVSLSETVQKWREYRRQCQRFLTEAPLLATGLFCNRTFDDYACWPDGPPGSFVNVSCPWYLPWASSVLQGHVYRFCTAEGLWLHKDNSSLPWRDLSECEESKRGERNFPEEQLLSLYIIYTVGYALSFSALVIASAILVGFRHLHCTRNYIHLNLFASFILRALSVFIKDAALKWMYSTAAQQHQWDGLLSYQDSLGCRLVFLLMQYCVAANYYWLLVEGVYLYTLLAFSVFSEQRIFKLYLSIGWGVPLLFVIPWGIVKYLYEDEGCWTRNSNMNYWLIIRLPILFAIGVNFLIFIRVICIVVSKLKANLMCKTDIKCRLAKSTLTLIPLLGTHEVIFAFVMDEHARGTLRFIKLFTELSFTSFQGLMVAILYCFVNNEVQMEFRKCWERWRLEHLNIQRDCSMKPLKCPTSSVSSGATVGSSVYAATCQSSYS
Method: (§1) A. GLP-1R Reporter Assay:
(§2) Increased cAMP levels were measured through enhanced expression of a luciferase reporter gene. […] The evening prior to assay, the cells were washed, the medium replaced with serum-free medium containing 0.5% protease-free bovine serum albumin (BSA), and then cultured overnight. […] Cell lysates were assayed for luciferase activity using the Luciferase Assay System (Promega Corporation, Madison, Wis.). Luciferase activity was measured using a Luminoskan Ascent (Thermo Electron Corporation, Marietta, Ohio). Nonlinear regression analyses of resultant compound concentration curves were performed using GraphPad Prism (GraphPad Software, Inc., San Diego, Calif.).

human GLP-1 receptor [1] = target: T2, human GLP-1 receptor (Homo sapiens, UniProt P43220); assay: In vitro GLP-1 receptor binding (125I-GLP-1 ligand binding assay), human receptor; settings: membranes of CHOK1 cells expressing human GLP-1 receptor, 0.2 nM 125I-GLP-1
T2 construct: expressed in transfected cells; host or cells: CHOK1 cells with a cAMP-regulated luciferase reporter construct
Method: Cells were sedimented at 1500 rpm for 10 minutes. The resulting pellets were homogenized in 15 mls of ice cold sucrose buffer (25 mM Tris-HCl, 0.32 M Sucrose, 0.25 g/L sodium azide, pH 7.4) with a motorized, glass fitted, Teflon homogenizer. The homogenate was centrifuged at 48,000×g at 4° C. for 10 minutes, resuspended in 25 ml assay buffer (50 mM Tris-HCl, 5 mM MgCl2, 10 mg/ml protease-free BSA, 0.1 mg/ml STI, and 0.1 mg/ml Pefabloc, pH 7.4) with a Tissue-Tearor (Biospec Products), then centrifuged again at 48,000×g for 10 minutes. The pellets were homogenized for a third time in 15 ml assay buffer using the Tissue-Tearor and again centrifuged at 48,000×g for 10 minutes. The resulting pellet was resuspended in assay buffer at a wet weight concentration of 4 mg/ml.
Binding assays were performed in 96-well U-bottom plates. […] Bound radioactivity was determined using a TopCount microplate scintillation and luminescence counter (Packard Instrument Company, PerkinElmer, Shelton, Conn.). Nonlinear regression analyses of resulting concentration curves were performed using GraphPad Prism (GraphPad Software, Inc., San Diego, Calif.).

human GLP-1 receptor [2] = target: T2, human GLP-1 receptor; assay: GLP-1R reporter assay (cAMP-regulated luciferase, CHOK1 cells), human receptor; type: cell-based; settings: 6 hours exposure
Method: as §1, §2

Row | Sequence | EC50 (mouse GLP-1 receptor) | IC50 (human GLP-1 receptor [1]) | EC50 (human GLP-1 receptor [2])
1 | HGEGTFTSDVSSYLEGCAAKEFIAWLKNGGPSSGAPPPS [SEQ ID NO: 8, HGEGTFTSDVSSYLEGCAAKEFIAWLKNGGPSSGAPPPS] | 0.3 nM | 100 nM | –
2 | HGEGTFTSDVSSYLEGCAAKEFIAWLVKGRGSSGAPPPS [SEQ ID NO: 7, HGEGTFTSDVSSYLEGCAAKEFIAWLVKGRGSSGAPPPS] | 0.8 nM | 100 nM | 0.1 nM
